## Primary screen of a compound library

By UniProt entry, the sequences of proteins in these tests, tags left out. Residues count along the entry.
UniProt A4I591, 1-473: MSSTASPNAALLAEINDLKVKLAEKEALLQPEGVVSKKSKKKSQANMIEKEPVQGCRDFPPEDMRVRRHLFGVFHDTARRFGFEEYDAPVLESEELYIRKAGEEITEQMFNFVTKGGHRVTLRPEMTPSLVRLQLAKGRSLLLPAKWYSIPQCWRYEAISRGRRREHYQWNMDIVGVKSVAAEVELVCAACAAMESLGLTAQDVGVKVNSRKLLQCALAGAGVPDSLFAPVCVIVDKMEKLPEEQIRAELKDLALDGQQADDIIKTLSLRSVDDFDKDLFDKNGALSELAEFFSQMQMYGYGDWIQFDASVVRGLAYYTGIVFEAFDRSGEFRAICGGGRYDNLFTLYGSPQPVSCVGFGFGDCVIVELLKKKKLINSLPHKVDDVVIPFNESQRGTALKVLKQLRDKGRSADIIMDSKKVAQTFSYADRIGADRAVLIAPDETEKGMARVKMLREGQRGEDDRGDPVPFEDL
UniProt I6X8D2, whole entry: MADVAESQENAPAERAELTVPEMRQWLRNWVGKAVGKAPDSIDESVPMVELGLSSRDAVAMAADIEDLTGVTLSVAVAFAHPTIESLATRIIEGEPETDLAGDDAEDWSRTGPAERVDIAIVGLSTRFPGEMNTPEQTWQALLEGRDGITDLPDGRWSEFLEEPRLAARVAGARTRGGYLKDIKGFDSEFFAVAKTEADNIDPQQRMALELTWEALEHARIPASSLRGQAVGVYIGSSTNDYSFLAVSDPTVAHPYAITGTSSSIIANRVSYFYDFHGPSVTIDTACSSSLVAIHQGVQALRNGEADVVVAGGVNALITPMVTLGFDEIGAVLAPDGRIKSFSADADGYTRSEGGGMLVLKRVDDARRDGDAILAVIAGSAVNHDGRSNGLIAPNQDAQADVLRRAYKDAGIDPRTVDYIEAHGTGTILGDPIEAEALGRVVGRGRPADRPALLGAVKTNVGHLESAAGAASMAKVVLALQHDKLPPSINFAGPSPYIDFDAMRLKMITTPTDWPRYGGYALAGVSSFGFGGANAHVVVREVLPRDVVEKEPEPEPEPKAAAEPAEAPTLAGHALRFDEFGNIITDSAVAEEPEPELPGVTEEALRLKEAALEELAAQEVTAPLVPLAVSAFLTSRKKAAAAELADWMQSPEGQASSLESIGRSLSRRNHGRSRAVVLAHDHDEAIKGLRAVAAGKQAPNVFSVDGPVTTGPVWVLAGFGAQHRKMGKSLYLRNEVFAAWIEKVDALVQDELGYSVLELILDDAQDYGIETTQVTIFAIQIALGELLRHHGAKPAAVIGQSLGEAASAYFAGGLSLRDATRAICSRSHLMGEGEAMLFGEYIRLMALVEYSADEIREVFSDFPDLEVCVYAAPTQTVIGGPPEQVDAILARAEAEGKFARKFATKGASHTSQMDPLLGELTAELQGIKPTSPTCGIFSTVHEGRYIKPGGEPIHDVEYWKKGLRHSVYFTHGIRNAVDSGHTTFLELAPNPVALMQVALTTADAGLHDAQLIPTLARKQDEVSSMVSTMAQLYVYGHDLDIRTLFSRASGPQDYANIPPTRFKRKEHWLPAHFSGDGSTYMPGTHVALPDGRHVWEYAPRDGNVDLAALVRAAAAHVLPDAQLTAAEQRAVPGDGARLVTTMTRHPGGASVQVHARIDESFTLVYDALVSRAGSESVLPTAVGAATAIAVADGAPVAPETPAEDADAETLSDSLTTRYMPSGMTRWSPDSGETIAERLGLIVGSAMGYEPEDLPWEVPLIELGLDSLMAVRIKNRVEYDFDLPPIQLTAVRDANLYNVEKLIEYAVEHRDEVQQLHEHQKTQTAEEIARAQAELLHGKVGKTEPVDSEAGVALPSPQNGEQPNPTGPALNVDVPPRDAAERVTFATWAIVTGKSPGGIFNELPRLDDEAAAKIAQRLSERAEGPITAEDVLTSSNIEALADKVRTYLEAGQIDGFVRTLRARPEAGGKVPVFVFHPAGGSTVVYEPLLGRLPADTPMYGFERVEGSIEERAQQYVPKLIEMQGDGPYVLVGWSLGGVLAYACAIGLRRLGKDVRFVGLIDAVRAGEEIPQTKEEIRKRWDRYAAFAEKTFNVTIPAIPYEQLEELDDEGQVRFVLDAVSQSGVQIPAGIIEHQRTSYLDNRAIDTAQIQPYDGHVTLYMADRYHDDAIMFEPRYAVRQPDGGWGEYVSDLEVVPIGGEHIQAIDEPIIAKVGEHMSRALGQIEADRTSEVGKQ

The values are deposited in ChEMBL (CHEMBL3988442, “University of Dundee, Small-Polar-MMV Screening Library” (2021)).

LiHisRS: 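Enzyme assay of histidyl-tRNA synthetase; the read-out is not stated. Target: Histidine-tRNA ligase, Leishmania infantum (UniProt A4I591). Concentration: 30 µM. Higher reads as stronger inhibition (inferred: compounds with an IC50 in retests scored well above the rest). The assay is labelled LdHisRS but filed under L. infantum. Size under these conditions: about 69,000 compounds, about 410 of them at 50% or above in at least one test.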
Pks13 thioesterase: 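Enzyme assay of the thioesterase domain of polyketide synthase 13; the read-out is not stated. Target: Polyketide synthase Pks13, Mycobacterium tuberculosis (UniProt I6X8D2). Concentration: 30 µM. The record gives no direction; the compounds picked for IC50 retests had high values, so higher reads as stronger inhibition. Size under these conditions: about 67,000 compounds, about 300 of them at 50% or above in at least one test.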
Leishmania in macrophages: 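Cell assay of Leishmania donovani living inside macrophages; the read-out is not stated. Compounds at 30 µM. The record gives no direction; compounds that gave an IC50 in retests scored well above the rest, so higher reads as stronger inhibition. Size under these conditions: about 69,000 compounds, about 1,000 of them at 50% or above in at least one test.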

Each number is a percent effect as filed. The record does not define 0% and 100%; most values in the screen are far below 50% and negative numbers occur (in some assays of this library far below -100). The compounds are a random part of those screened. Two or more numbers in one place are separate tests of the same structure; such repeats can differ widely.

NC[C@H]1CC[C@H](C(NC(=O)CC2CCCCC2)c2ccccn2)CC1 (some centres not stated) read LiHisRS: 15.94%; Pks13 thioesterase: 11.74%; Leishmania in macrophages: 5.138% & 3.63%. CCN(CCC(=O)OC)S(=O)(=O)c1cnc2c(c1)c(C)nn2C gave LiHisRS: 4%; Pks13 thioesterase: -23.69%; Leishmania in macrophages: 27.75%. Result for O=S(=O)(c1cccs1)N1CCCC2(COCCN(c3cccnc3)C2)C1 (configuration not stated) was LiHisRS: 28%; Pks13 thioesterase: -33.91%. For Cc1nc(CN2C[C@@H]3OCCN(c4ncc(F)cn4)[C@@H]3C2)cs1 the result was LiHisRS: 13.21%; Pks13 thioesterase: -5.116%. With Cc1noc(CNC(=O)CN(C)c2nc3c(F)cccc3s2)n1 the screen gave LiHisRS: 21.51%; Pks13 thioesterase: -21.43%; Leishmania in macrophages: -4.26%. For Cc1c[nH]c(CN2CCCCC2CCc2cccc(O)c2)c(C)c1=O (configuration not stated) the result was LiHisRS: 24.6%; Pks13 thioesterase: -5.358%; Leishmania in macrophages: 19.69%. For CCn1cc(CN2CCCN(C(=O)CCc3cccs3)CC2)cn1 the result was LiHisRS: 10.43%; Pks13 thioesterase: -18.36%; Leishmania in macrophages: 33.5%.

Result for COc1ncc(-c2cc(NCCN(C)C)nc3[nH]ccc23)c(OC)n1 was LiHisRS: 8.065%; Pks13 thioesterase: 0.1055%; Leishmania in macrophages: -24.83%. CCc1nccn1-c1cccc(C2CCCN2)n1.Cl.Cl (configuration not stated) read Leishmania in macrophages: 6.16%. For Cc1nc(CN2CCCN(C(=O)CC(C)n3cccc3)CC2)cs1 (configuration not stated) the result was LiHisRS: 16.3%; Pks13 thioesterase: -3.438%; Leishmania in macrophages: 9.561%. CC(C)=CCN1CCNC(=O)C1CC(=O)N1CCc2sccc2C1 (configuration not stated) gave LiHisRS: 22.58%; Pks13 thioesterase: 48.18%; Leishmania in macrophages: 21.59%. For CSCC(=O)Nc1nccn1Cc1ccc(Br)cc1 the result was LiHisRS: -17.95%; Pks13 thioesterase: -16.75%; Leishmania in macrophages: 8.508%. For CS(=O)(=O)N1Cc2nc(C(=O)NCc3ccccc3)oc2C1 the result was LiHisRS: 8.547%; Pks13 thioesterase: -34.68%; Leishmania in macrophages: 19.18%. O=C(O)C(F)(F)F.[H][C@]12CCC[C@@H](CNc3nccn3C)[C@@]1([H])CN(Cc1nccs1)C2 read Leishmania in macrophages: 21.65%.

Result for Cc1ccc(CN2CCC3(CC2)CC(c2cccnc2)C(=O)N3C)o1 (configuration not stated) was LiHisRS: 16.98%; Pks13 thioesterase: 10.72%. CCc1nnc(Nc2cc(C)nc(C3CCN(c4ccncn4)C3)n2)s1 (configuration not stated) gave LiHisRS: 1.418%; Pks13 thioesterase: -13.81%; Leishmania in macrophages: 11.18%. COCc1ncn2c1CN(C(=O)c1ccco1)CC2 read LiHisRS: 9.722%; Pks13 thioesterase: -4.3%; Leishmania in macrophages: -13.5%. O=S1(=O)C[C@@H]2[C@H](C1)N(Cc1ncc[nH]1)CCN2Cc1cccnc1 gave LiHisRS: 13.21%; Pks13 thioesterase: -6.476%.

The last 2 entries again:

COCc1ncn2c1CN(C(=O)c1ccco1)CC2 read LiHisRS: 9.722%; Pks13 thioesterase: -4.3%; Leishmania in macrophages: -13.5%.
O=S1(=O)C[C@@H]2[C@H](C1)N(Cc1ncc[nH]1)CCN2Cc1cccnc1 read LiHisRS: 13.21%; Pks13 thioesterase: -6.476%.